Results taken from PubChem BioAssay AID1347076 (National Center for Advancing Translational Sciences (NCATS), 2019).
About 13,000 (3.2%) of roughly 400,000 compounds were called active. This list was built around the results that the source calls inconclusive (neither active nor inactive); the mix of calls is not that of the screen. Calls follow the shape of the dose curve; as a rule, active = well fitted cell-killing curve with a large enough effect; inconclusive = small, poorly fitted or top-dose-only effect, or effect the other way; inactive = flat fitted curve, though single readings scatter. Where the call is inconclusive, the potency comes from a doubtful curve fit.
% is scaled to controls: 0 for no effect and ±100 for the full control effect; potency is read from the fitted curve at half-maximal effect.

Experiment: qHTS assay for MDR1-selective chemotherapeutics: Primary screen using the drug-selected MDR subline cells KB-V1; also: nearly all actives have a fitted effect of over 60% in size
Details: KB-V1 MDR cells viability, CellTiter-Glo, 72 h; activity change, negative = cytotoxicity: at 46.1 µM (top of the series)
Method in brief: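 KB-V1 cells (P-gp-expressing MDR subline of KB-3-1) in phenol-red-free DMEM with 10% FBS were exposed to library compounds over a concentration series for 72 h at 37 degrees C. Viability read by CellTiter-Glo luminescence; concentration-effect curves fitted after normalization.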
With `O=C(c1ccccc1)N(Cc1ccccc1)c1ccccn1` the Potency was inconclusive: 6.51 µM [cytotoxic, partial curve]. With `CCN1CCN(CC(=O)c2ccc(OC)cc2)CC1` the Potency was “inactive”. In the case of `Cc1ccc(OC(=O)N(C)C[C@@H]2OCc3cn(nn3)CCCC(=O)N([C@@H](C)CO)C[C@H]2C)cc1`, the Potency is reported as “inactive”. In the case of `Cn1c(=O)c2c(ncn2CCOc2ccc(Br)cc2)n(C)c1=O`, the Potency is reported as inconclusive: 5.8 µM [cytotoxic, full curve, poor fit]. For `COC(=O)c1c(-c2ccc(C)cc2)csc1NC(=O)Cc1ccc(OC)c(OC)c1`, the Potency was active: 2.59 µM. For `COc1ccc(/C=C2/C(=O)N(c3nc4ccccc4s3)N=C2CSc2ccc(Cl)cc2)cc1`, the Potency was “inactive”. With `CCOC(=O)N1CCC(NC(=O)c2ccc3c(c2)N(Cc2ccccc2C)C(=O)c2ccccc2S3=O)CC1` (stereo not drawn) the Potency was inconclusive: 32.6 µM [cytotoxic, partial curve, poor fit]. For `CN(C)c1ccc(CNC(=O)C2(C)Cc3c(-c4cccc(C(F)(F)F)c4)ccnc3O2)cc1` (stereo not drawn), the Potency was inconclusive: 29.1 µM [cytotoxic, single point]. In the case of `CCOc1ccccc1-c1noc(CSc2nnc(-c3ccccc3)n2-c2ccc(OC)cc2)n1`, the Potency is reported as inconclusive: 20.6 µM [cytotoxic, single point]. In the case of `CCN1CCc2c(OCc3ccc(C(=O)OC)o3)cccc2C1=O`, the Potency is reported as inconclusive: 32.6 µM [cytotoxic, partial curve, poor fit]. With `NC(=O)C1C(c2ccccc2)=C1c1ccccc1` the Potency was active: 20.6 µM. For `O=C(Cc1c[nH]c2ccccc12)NCc1cccs1`, the Potency was inconclusive: 20.6 µM [cytotoxic, single point]. In the case of `CCOc1ccccc1-n1c(SC(C)C(=O)NCC2CCCO2)nc2ccccc2c1=O` (stereo not drawn), the Potency is reported as inconclusive: 32.6 µM [cytotoxic, single point]. With `Cc1cccc(C(C)C)c1-n1nnnc1-c1ccccc1` the Potency was “inactive”. For `O=C(CN1CCOCC1)Nc1ccc(F)cc1`, the Potency was “inactive”. With `CCN(CC)S(=O)(=O)c1ccc(C(=O)NCC2(N3CCOCC3)CCCCC2)cc1` the Potency was “inactive”. In the case of `Cc1csc(NC(=O)c2c(-c3ccccc3)noc2C)n1`, the Potency is reported as inconclusive: 18.4 µM [cytotoxic, single point]. For `COc1ccc(/C=C/C(=O)Nc2ccc3nc4n(c(=O)c3c2)CCCC4)cc1OC`, the Potency was “inactive”. With `CCN(C1CCCCC1)S(=O)(=O)c1ccc(S(=O)(=O)N(CC(=O)Nc2ccccc2)C2CC2)cc1` the Potency was active: 6.51 µM. With `CCC(=NNC(=O)c1ccc2c(c1)nc(C)n2CC)c1cc(F)ccc1O` the Potency was active: 2.31 µM. With `CN(C)c1ccc(/C=C2\CCc3ccccc32)cc1` the Potency was inconclusive: 18.4 µM [rising, partial curve]. With `CCOc1ccccc1N1CCN(C(=O)C2c3ccccc3Oc3ccccc32)CC1` the Potency was active: 14.6 µM. With `CC(C)(C)OC(=O)N1CCC[C@H]1c1nnc(SCc2ccccc2)o1` the Potency was inconclusive: 9.2 µM [cytotoxic, partial curve]. With `CC1(C)Cc2ccccc2C(CSc2ccccc2C(=O)O)=N1` the Potency was “inactive”. With `CC(=O)c1cccc(NC(=O)C(C)OC(=O)CCN=C2NS(=O)(=O)c3ccccc32)c1` (stereo not drawn) the Potency was “inactive”. With `O=C(NC1CC1)c1ccccc1NC(=O)c1ccccc1OC(F)F` the Potency was inconclusive: 25.9 µM [cytotoxic, partial curve, poor fit]. For `CC(C)(C)NC(=O)c1ccc(Sc2ccccc2)c([N+](=O)[O-])c1`, the Potency was inconclusive: 18.4 µM [cytotoxic, partial curve, poor fit]. In the case of `COc1c(Cl)cc(C(=O)Nc2cc(-c3nc4ccccc4[nH]3)ccc2C)cc1Cl`, the Potency is reported as inconclusive: 29.1 µM [cytotoxic, single point]. In the case of `COc1ccc(-c2ccc(C(=O)NCc3cccs3)c3occc23)c(C)c1`, the Potency is reported as inconclusive: 29.1 µM [cytotoxic, single point]. For `Nc1c(C(=O)N2CCOCC2)sc(=S)n1-c1ccccc1`, the Potency was inconclusive: 20.6 µM [cytotoxic, partial curve, poor fit]. In the case of `COc1ccc(Cn2c(-c3ccccc3)nc3c(c(=O)c4ccccc4n3C)c2=O)cc1`, the Potency is reported as “inactive”. For `COc1ccccc1NCCC(=O)OCC(=O)NC1CCCC(C)C1C` (stereo not drawn), the Potency was inconclusive: 29.1 µM [rising, single point]. With `COc1ccc(OC)c(NC(=O)CC2C(=O)NCCN2C(=O)c2ccccc2)c1` (stereo not drawn) the Potency was “inactive”. In the case of `CN(CC(=O)NCC(=O)Nc1ccc(F)cc1)C1CCS(=O)(=O)C1` (stereo not drawn), the Potency is reported as “inactive”. In the case of `C[C@H](CO)N1C[C@H](C)[C@@H](CN(C)S(=O)(=O)c2cn(C)cn2)Oc2c(NC(=O)Nc3ccc(C(F)(F)F)cc3)cccc2C1=O`, the Potency is reported as inconclusive: 29.1 µM [rising, single point]. With `COc1ccc(N(C(=O)c2ccco2)C(C(=O)NC2CCCC2)c2ccccc2)cc1` (stereo not drawn) the Potency was inconclusive: 4.11 µM [cytotoxic, full curve, poor fit]. For `CC(C)OCCCn1c(=O)c2ccccc2n2c(CCC(=O)N3CCN(c4ccccn4)CC3)nnc12`, the Potency was inconclusive: 11.6 µM [cytotoxic, partial curve, poor fit]. For `O=C(C1CC(=O)N(c2ccc(F)cc2)C1)N1CCC(c2nc3ccccc3[nH]2)CC1` (stereo not drawn), the Potency was “inactive”. In the case of `O=C(CSc1ccc(-c2ccco2)nn1)Nc1ccc(F)cc1`, the Potency is reported as active: 10.3 µM. For `c1ccc(-c2nn[nH]n2)nc1`, the Potency was inconclusive: 32.6 µM [rising, single point]. In the case of `O=C(Cc1ccc(Cl)cc1)Nc1ccc(S(=O)(=O)N2CCOCC2)cc1`, the Potency is reported as inconclusive: 29.1 µM [cytotoxic, single point]. For `COc1ccc(N2CCN(C(=O)CSc3nnc(CNc4ccccc4)o3)CC2)cc1`, the Potency was inconclusive: 18.4 µM [cytotoxic, partial curve, poor fit]. For `O=C(NCC(c1ccco1)N1CCN(c2ccc(F)cc2)CC1)OCc1ccccc1` (stereo not drawn), the Potency was inconclusive: 18.4 µM [cytotoxic, partial curve, poor fit]. With `Cc1nccc2[nH]c(=O)c(C(=O)NC3CCCCC3C)cc12` (stereo not drawn) the Potency was “inactive”. With `CN1CCN(c2ccc(NC(=O)c3ccc(-c4ccccc4F)o3)cc2)CC1` the Potency was inconclusive: 9.2 µM [cytotoxic, partial curve]. In the case of `CC(=O)c1ccc(NC(=O)CN2CCN(c3ccccc3)CC2)cc1`, the Potency is reported as inconclusive: 18.4 µM [cytotoxic, single point]. In the case of `Cc1nc(C)c(C(=O)NCc2ccccc2Cl)o1`, the Potency is reported as active: 20.6 µM. For `O=C(O/N=C\c1ccc(N2CCCCC2)c([N+](=O)[O-])c1)c1cccc(C(F)(F)F)c1`, the Potency was inconclusive: 9.2 µM [cytotoxic, partial curve, poor fit]. In the case of `O=C(c1ccc(C(F)(F)F)cc1)N1CCN(c2ccc(N3CCOCC3)nn2)CC1`, the Potency is reported as active: 16.4 µM. In the case of `O=C1C=CC2C(c3ccc4c(c3)OCO4)CC1N2Cc1ccccc1` (stereo not drawn), the Potency is reported as inconclusive: 20.6 µM [cytotoxic, single point]. In the case of `COc1cccc(C2CC(=O)Nc3cc4c(cc32)OCCO4)c1OC(C)C` (stereo not drawn), the Potency is reported as inconclusive: 25.9 µM [cytotoxic, single point]. With `CCc1cc(=O)oc2c3c(cc(OCC(=O)NCc4ccco4)c12)OC(C)(C)CC3` the Potency was inconclusive: 29.1 µM [cytotoxic, single point]. For `COC(=O)C(NC(=O)CCc1nnc2ccc(N3CCCCC3)nn12)C(C)C` (stereo not drawn), the Potency was inconclusive: 29.1 µM [rising, single point]. In the case of `CC1CC(C)CN(c2ncnc3c2cnn3Cc2ccc(Cl)cc2)C1` (stereo not drawn), the Potency is reported as inconclusive: 14.6 µM [cytotoxic, partial curve, poor fit]. For `O=C(N/N=C/c1ccco1)c1cc(-c2ccccc2)nc2ccccc12`, the activity change, negative = cytotoxicity was inconclusive: -8.18%. For `CCOc1ccc(C(=O)COC(=O)Cn2cnc3c2c(=O)n(C)c(=O)n3C)cc1`, the Potency was inconclusive: 29.1 µM [rising, single point]. In the case of `CN1CCc2c(sc(N)c2C(=O)c2ccc(Cl)cc2)C1`, the Potency is reported as inconclusive: 29.1 µM [rising, single point]. With `CC(C)Oc1ccc(S(=O)(=O)N2CCOCC2)cc1NC(=O)C1CCCCC1` the Potency was inconclusive: 9.2 µM [cytotoxic, single point]. In the case of `O=C(Nc1ccc2c(c1)CCC2)Nc1ccccc1Cl`, the activity change, negative = cytotoxicity is reported as inconclusive: -15.4%. In the case of `Cc1ccc(Nc2c(-c3ccccn3)nc3ccc(Br)cn23)cc1`, the Potency is reported as inconclusive: 0.651 µM [cytotoxic, full curve, poor fit]. With `CCC(C(=O)OCC(=O)Nc1ccc(SC(F)F)cc1)c1ccccc1` (stereo not drawn) the Potency was inconclusive: 3.66 µM [rising, partial curve, poor fit]. In the case of `COC(=O)[C@H](CC(C)C)NC(=O)NC1CCCc2ccccc21` (stereo partly drawn), the Potency is reported as inconclusive: 23.1 µM [rising, single point]. In the case of `O=C(CCN=C1NS(=O)(=O)c2ccccc21)OCC(=O)c1ccccc1Cl`, the Potency is reported as inconclusive: 20.6 µM [rising, single point]. With `CC(CCc1ccccc1)NC(=O)CSc1n[nH]c(-c2ccccc2)n1` (stereo not drawn) the Potency was inconclusive: 29.1 µM [cytotoxic, single point]. In the case of `CC(C(=O)NC1CCCC1)n1c(-c2ccccn2)nc2ccccc21` (stereo not drawn), the Potency is reported as inconclusive: 8.2 µM [cytotoxic, partial curve]. With `Cc1nn(C(C)C(=O)NCc2ccc(OC(C)C)cc2)c(=O)c2c1sc1ccccc12` (stereo not drawn) the Potency was “inactive”. In the case of `N[C@@H](Cc1ccccc1)C(=O)N1CCC(C(=O)NCC(=O)Nc2ccc(F)cc2)CC1`, the Potency is reported as inconclusive: 29.1 µM [rising, single point]. With `Cc1cccnc1NC(=O)C1CCC1` the Potency was inconclusive: 29.1 µM [rising, single point].
